{"sequences": {"note": "Sequences of proteins named here, by UniProt entry; tags and fusion partners are left off. Residues count along the entry.", "UniProt O15123, residues 19-496": "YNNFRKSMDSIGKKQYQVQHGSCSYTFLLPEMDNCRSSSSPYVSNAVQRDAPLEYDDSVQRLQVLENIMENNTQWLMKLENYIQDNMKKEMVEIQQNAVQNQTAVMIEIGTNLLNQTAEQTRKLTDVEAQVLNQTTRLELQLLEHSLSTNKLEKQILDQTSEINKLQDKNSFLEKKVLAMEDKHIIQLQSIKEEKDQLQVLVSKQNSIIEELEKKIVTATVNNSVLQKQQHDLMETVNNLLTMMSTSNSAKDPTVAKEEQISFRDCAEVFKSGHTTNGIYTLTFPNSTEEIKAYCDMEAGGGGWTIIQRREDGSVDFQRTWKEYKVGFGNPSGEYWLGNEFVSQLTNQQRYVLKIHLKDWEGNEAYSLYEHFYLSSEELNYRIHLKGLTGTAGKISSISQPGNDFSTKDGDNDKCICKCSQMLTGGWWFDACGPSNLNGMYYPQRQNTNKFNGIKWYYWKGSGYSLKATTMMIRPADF"}, "source": "patent US20120076796A1", "about": "(Ablynx, published 2012)", "binders": {"B1": {"name": "170-H1 (VHH)", "VHH": "EVQLVESGGGLAQAGGSLRLSCAASGSISSINVMGWYRQAPGKQRDLVAVITRALNTNYATSVKGRFTISRDDFKDTVYLQMNSLEPEDTAVYYCNAGGYYTNLRTGGNYWGQGTQVTVSS"}, "B2": {"name": "171-H2 (VHH)", "VHH": "EVQLVESGGGLVQAGGSLRLSCAASGRPFSMYAMGWFRQAPGKEREFVTVITWSGGSTYYADSVKGRFTISKDIAKNTVYLQMNSLKPDDMAVYYCAAARRYGNLYNTNNYDYWGQGTQVTVSS"}, "B3": {"name": "171-E2 (VHH)", "VHH": "EVQLVESGGGLVQAGASLRLSCVDSGDTFSWYAMGWFRQQAPGKEREFVSSISGGGSNTVYADSVKGRFTVSRDRAKNTVYLQMNSLKPEDSGVYYCAADKRWGSPATSRSTHDYDFWGQGTQVTVSS"}, "B4": {"name": "171-G4 (VHH)", "VHH": "B3 VHH with A16G, D24A, S30N, S51A, T59I, A62V, A76I, A99V"}, "B5": {"name": "171-E4 (VHH)", "VHH": "EVQLVESGGGLVQPGGSLRLSCAASGRTFSTFNTYSMGWFRQAPGKEREFVAAISRSGNVTPYADSVKGRFAISRDNAKNTLTLQMNSLKPEDTAVYYCAASKIGIASTIRYYDYWGQGTQVTVSS"}, "B6": {"name": "171-C4 (VHH)", "VHH": "B5 VHH with S57G, L82V, T83A"}, "B7": {"name": "170-G3 (VHH)", "VHH": "EVQLVESGGGLVQAGGSLRLSCAASETIFASAMGWYRQPPGKQRELVARITRGGSTNYAESVKGRFAISRDNADSTLYLRMNNLKPEDTAVYYCNADTIGHSSSYITYWGQGTQVTVSS"}, "B8": {"name": "170-B1 (VHH)", "VHH": "EVQLVESGGGLVQAGGSLRLSCAASESIFSLYVTGWYRQAPGKQRELVASITSGGSLTYADSVKGRFTISRDNAKNTVHLQMHSLKPEDTAVYFCNGRSIGVDDMPYVYWGQGTQVTVSS"}, "B9": {"name": "170-F2 (VHH)", "VHH": "EVQLVESGGGLVQAGGSLRLSCAASGIFIIDTMGWYRQAPGKQRELVASITPTGNTNYVDSVKGRFAISRDNNKNTMHLQMNSLKPEDTAVYYCNAVYPRYYGDDDRPPVDSWGQGTRVTVSS"}, "B10": {"name": "171-F3 (VHH)", "VHH": "EVQLVESGGGLVQTGGSLRLSCAASGRSFNLYYMGWFRQAPGREREFVAGISGSGGSTFYGDSVKGRFTISRDNLKNTMYLQMNSLKPEDTAVYYCQSSRRIITNPREYGYWGQGTQVTVSS"}, "B11": {"name": "171-D2 (VHH)", "VHH": "EVQLVESGGGLVQAGGSLRLSCAASVLTFGTYTVGWFRQAPGKEREFVSIITGSGTYNDYADSVKGRFTVSRDNAKNTVYLQMNSLKSEDTAVYYCAARHWGMFSRSENDYNYWGQGTQVTVSS"}, "B12": {"name": "170-C2 (VHH)", "VHH": "EVQLVESGGGLVQPGGSLRLSCAASGFTFSLNAMTWVRQAPGKGLEWVSTISSGGWTTSYADSVKGRFTISRDNAKNTLYLQMNSLKPEDMAVYYCAKGSEFNGYEVRGQGTQVTVSS"}, "B13": {"name": "171-G2 (VHH)", "VHH": "EVQLVESGGGLVQAGGSLRLSCTASGLTFSMYAMAWIRLAPGKEREVIAAIDWSGGSTFYGDSVKGRFTISRDNAKNTVYLEMNSLKPEDTAVYYCAANRRIYSSGSSLSDNSLYNFWGQGTQVTVSS"}, "B14": {"name": "166-D7 (VHH)", "VHH": "EVQLVESGGGLVQAGGSLRLSCAASGFTFSDTTIGWFRQAPGKEREGISCISTGDGSTYYAESVKGRFTISSDNAKNTVYLQMNSLNPEDTAVYYCALDQAPLWSTWSAPYEYDYWGQGTQVTVSS", "notes": "Nanobody"}}, "note": "Substitutions are numbered along the chain they refer to. These are yes or no findings as the source states them, for the method shown. Some results given as binding are weak or reduced against the parent protein; the word gives no strength.", "data": [{"molecular_target": "T1, Recombinant human Angiopoietin-like-4 (R&D Systems Cat No 3485-AN) (human) (UniProt Q9BY76)", "T1 sequence (looked up)": "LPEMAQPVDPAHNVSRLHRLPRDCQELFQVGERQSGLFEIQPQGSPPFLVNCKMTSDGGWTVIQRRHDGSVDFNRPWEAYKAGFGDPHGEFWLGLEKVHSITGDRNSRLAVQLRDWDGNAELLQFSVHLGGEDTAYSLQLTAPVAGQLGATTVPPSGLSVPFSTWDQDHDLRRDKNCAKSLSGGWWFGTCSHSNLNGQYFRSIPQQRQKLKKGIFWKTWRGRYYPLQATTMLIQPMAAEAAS", "test": "phage ELISA on immobilized Angiopoietin-like-4, anti-M13-HRP", "values": [{"binder": "B1", "binding": "binds"}, {"binder": "B2", "binding": "binds"}, {"binder": "B3", "binding": "binds"}, {"binder": "B4", "binding": "binds"}, {"binder": "B5", "binding": "binds"}, {"binder": "B6", "binding": "binds"}, {"binder": "B7", "binding": "binds"}, {"binder": "B8", "binding": "binds"}, {"binder": "B9", "binding": "binds"}, {"binder": "B10", "binding": "binds"}, {"binder": "B11", "binding": "binds"}, {"binder": "B12", "binding": "binds"}, {"binder": "B13", "binding": "binds"}]}, {"molecular_target": "T1, Recombinant human Angiopoietin-like-4 (R&D Systems Cat No 3485-AN) (human)", "test": "phage ELISA on coated Angptl4: 10 ul monoclonal phage supernatant in 100 ul, anti-M13-HRP, OD 450 nm", "values": [{"binder": "B1", "binding": "binds"}, {"binder": "B2", "binding": "binds"}, {"binder": "B3", "binding": "binds"}, {"binder": "B4", "binding": "binds"}, {"binder": "B5", "binding": "binds"}, {"binder": "B6", "binding": "binds"}, {"binder": "B7", "binding": "binds"}, {"binder": "B8", "binding": "binds"}, {"binder": "B9", "binding": "binds"}, {"binder": "B10", "binding": "binds"}, {"binder": "B11", "binding": "binds"}, {"binder": "B12", "binding": "binds"}, {"binder": "B13", "binding": "binds"}]}, {"molecular_target": "Recombinant human Angiopoietin-2 (R&D Systems Cat No 623-AN/CF) (human) (UniProt O15123)", "test": "phage ELISA: 10 ul monoclonal phage supernatant in 100 ul on 0.2 ug/ml coated Ang2, anti-M13-HRP, OD 450 nm", "values": [{"binder": "B14", "binding": "binds"}]}, {"molecular_target": "Recombinant human Angiopoietin-2 (R&D Systems Cat No 623-AN/CF) (human) (UniProt O15123)", "test": "phage ELISA, 0.2 ug/ml Ang2 coated, anti-M13-HRP", "values": [{"binder": "B14", "binding": "binds"}]}, {"molecular_target": "biotinylated rh Ang2 (R&D Systems Cat No BT623, Lot No BNR174091) (human) (UniProt O15123)", "test": "competition ELISA: 0.05 ug/ml biotinylated Ang2 pre-incubated with 10 ul periplasmic extract, then on coated Tie2/Fc (4 ug/ml); bound Ang2 detected with extravidin-HRP; blocked partner: Tie2/Fc", "values": [{"binder": "B14", "binding": "binds"}]}]}
